The list shows a part of the results. Small differences around the control level are noise.

By UniProt entry, the sequences of proteins in these tests, tags left out. Where a name states a change or a piece, a line headed by the entry shows the natural chain unless it says otherwise.
UniProt Q9C099: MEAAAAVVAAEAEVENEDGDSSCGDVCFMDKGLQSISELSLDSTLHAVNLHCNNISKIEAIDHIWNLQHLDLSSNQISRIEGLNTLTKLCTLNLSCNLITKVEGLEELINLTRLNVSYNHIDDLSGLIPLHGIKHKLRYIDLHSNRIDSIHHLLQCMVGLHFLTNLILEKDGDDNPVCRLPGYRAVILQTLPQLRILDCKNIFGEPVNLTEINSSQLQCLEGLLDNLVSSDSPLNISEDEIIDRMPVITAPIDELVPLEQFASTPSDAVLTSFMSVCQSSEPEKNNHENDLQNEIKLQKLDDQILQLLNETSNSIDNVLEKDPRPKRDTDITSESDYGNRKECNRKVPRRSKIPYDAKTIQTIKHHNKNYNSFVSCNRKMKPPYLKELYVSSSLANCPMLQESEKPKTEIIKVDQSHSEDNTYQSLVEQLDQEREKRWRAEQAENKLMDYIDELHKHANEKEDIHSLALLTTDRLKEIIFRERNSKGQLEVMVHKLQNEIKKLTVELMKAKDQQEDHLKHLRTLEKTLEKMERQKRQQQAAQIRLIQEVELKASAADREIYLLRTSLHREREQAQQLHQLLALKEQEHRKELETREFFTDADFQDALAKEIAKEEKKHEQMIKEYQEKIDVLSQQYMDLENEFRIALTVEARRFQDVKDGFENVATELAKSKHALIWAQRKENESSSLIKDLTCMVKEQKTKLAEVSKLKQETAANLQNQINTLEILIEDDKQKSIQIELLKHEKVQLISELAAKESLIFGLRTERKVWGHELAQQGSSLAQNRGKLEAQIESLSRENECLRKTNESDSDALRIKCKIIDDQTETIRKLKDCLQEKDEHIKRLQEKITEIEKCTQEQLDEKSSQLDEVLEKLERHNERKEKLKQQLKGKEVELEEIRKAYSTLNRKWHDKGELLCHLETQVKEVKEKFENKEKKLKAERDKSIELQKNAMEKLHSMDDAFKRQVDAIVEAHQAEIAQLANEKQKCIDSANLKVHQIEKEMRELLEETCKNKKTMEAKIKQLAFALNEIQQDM
UniProt Q9BWN1: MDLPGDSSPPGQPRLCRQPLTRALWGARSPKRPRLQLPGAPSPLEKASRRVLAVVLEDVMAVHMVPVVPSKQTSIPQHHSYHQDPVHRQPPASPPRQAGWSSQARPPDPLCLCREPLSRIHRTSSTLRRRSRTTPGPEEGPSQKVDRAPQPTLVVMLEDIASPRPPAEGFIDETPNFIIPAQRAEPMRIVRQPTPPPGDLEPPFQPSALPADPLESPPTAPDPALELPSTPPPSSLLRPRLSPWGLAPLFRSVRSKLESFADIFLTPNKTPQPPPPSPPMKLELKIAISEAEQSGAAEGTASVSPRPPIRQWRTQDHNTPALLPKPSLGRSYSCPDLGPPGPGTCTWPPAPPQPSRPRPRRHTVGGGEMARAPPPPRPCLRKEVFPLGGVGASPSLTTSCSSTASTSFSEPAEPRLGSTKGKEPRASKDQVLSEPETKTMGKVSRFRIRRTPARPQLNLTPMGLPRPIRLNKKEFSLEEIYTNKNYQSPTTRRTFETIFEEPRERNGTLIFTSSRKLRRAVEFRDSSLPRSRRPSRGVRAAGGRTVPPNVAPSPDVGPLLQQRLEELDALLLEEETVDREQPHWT
UniProt Q9BXV9: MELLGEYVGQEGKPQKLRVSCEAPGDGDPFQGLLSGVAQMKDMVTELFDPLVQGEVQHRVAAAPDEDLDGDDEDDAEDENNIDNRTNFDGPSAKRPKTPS
UniProt Q9C0C2: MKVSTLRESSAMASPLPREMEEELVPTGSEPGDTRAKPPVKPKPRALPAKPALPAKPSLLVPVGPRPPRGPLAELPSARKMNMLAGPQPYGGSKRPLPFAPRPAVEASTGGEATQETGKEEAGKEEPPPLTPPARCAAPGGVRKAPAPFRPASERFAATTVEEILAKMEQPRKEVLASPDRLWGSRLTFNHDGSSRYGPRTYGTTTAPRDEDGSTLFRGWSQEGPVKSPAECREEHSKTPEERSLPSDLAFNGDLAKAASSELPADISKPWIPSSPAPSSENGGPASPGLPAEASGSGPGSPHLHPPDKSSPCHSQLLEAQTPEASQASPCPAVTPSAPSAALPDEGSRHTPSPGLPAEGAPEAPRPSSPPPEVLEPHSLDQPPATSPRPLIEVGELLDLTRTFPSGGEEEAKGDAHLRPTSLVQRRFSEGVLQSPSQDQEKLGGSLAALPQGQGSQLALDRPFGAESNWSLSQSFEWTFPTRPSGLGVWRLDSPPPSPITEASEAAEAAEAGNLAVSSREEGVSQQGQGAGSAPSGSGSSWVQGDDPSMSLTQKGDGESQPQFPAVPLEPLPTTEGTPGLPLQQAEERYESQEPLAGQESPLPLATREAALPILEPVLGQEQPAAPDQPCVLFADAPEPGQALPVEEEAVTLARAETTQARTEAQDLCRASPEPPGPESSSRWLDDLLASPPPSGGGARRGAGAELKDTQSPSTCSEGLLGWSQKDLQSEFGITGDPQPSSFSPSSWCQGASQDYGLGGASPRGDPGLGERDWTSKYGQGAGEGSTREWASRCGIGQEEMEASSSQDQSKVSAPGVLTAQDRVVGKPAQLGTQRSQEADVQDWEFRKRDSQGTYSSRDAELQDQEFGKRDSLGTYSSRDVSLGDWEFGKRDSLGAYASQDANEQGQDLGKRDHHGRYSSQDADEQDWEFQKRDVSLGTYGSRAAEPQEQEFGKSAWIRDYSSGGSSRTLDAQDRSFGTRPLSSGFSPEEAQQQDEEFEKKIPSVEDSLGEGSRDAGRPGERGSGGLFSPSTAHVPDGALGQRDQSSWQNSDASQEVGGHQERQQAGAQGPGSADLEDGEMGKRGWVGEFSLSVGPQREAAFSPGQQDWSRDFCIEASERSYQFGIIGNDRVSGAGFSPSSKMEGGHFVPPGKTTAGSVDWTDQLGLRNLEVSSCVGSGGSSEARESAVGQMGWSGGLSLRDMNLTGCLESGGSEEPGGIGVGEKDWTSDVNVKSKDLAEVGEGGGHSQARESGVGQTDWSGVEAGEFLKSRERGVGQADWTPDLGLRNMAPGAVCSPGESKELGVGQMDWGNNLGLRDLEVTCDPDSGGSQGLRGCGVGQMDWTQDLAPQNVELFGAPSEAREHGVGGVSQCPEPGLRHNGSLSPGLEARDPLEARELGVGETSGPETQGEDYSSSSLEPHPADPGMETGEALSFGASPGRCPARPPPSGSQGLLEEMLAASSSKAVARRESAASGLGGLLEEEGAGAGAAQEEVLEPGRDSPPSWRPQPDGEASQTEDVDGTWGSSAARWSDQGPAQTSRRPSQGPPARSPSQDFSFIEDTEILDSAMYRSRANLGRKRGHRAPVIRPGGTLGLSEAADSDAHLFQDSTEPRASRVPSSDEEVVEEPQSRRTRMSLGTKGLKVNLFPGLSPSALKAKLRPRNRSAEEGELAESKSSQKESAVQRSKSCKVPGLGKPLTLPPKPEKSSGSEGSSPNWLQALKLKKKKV
UniProt Q9BZX2: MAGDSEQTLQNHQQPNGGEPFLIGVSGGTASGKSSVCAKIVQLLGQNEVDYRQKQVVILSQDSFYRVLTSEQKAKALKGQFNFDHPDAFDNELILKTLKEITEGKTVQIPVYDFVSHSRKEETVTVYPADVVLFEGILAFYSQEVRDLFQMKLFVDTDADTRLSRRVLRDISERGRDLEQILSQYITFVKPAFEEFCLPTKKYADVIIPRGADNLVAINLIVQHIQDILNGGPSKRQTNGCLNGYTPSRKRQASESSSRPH
UniProt Q9GZT8: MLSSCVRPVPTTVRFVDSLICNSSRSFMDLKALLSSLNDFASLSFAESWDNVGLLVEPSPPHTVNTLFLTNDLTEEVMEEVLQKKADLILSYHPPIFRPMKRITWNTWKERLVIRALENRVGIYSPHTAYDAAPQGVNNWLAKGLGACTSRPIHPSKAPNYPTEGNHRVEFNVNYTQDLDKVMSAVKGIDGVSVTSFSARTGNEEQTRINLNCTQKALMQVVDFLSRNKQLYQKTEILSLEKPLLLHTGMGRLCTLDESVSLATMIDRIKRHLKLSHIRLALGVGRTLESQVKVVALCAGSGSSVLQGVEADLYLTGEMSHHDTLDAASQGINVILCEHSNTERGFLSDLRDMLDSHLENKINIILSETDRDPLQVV
UniProt Q9H1E3: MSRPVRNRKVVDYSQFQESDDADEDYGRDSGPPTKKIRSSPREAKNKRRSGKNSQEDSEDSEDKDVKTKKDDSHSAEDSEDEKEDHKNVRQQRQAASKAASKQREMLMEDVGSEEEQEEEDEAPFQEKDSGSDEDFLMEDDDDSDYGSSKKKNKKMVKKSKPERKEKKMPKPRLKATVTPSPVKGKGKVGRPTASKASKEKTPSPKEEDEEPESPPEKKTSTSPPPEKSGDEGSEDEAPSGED
UniProt Q9BY42: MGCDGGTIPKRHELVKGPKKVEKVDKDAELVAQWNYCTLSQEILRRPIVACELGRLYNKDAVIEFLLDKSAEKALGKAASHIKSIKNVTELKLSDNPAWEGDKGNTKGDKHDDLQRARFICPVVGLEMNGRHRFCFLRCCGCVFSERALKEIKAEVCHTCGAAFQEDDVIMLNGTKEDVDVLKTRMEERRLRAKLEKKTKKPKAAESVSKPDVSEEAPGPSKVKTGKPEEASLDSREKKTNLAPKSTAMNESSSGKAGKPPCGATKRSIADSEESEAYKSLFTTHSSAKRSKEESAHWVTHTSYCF
UniProt Q9C0B7: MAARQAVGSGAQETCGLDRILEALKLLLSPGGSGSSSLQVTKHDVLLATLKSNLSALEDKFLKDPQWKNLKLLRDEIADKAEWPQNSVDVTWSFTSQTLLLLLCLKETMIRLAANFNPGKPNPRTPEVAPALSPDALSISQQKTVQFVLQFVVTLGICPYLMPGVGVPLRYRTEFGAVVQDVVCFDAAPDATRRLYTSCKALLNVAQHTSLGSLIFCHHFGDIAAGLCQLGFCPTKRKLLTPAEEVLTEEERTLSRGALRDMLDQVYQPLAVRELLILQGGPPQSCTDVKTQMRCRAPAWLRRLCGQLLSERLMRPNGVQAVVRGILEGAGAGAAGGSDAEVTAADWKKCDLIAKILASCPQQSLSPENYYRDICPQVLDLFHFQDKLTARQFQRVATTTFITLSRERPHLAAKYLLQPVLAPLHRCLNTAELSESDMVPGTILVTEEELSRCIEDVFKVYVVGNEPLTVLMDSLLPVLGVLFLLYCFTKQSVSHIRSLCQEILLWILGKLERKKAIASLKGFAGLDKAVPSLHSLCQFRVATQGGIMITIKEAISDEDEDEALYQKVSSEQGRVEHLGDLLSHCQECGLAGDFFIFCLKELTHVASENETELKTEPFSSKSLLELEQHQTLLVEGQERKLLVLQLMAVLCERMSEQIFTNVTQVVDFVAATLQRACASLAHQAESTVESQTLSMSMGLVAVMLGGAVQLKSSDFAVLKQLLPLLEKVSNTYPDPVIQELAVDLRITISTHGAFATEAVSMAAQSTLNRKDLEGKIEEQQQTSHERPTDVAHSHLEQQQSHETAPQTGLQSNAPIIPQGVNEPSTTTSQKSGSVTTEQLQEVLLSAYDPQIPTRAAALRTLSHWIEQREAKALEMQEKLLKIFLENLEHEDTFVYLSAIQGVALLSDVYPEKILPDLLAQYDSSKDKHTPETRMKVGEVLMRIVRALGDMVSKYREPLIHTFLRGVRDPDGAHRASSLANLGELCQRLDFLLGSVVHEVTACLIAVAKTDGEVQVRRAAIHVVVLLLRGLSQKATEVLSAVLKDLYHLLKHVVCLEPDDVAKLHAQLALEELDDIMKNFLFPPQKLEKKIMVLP
UniProt Q9H0A9: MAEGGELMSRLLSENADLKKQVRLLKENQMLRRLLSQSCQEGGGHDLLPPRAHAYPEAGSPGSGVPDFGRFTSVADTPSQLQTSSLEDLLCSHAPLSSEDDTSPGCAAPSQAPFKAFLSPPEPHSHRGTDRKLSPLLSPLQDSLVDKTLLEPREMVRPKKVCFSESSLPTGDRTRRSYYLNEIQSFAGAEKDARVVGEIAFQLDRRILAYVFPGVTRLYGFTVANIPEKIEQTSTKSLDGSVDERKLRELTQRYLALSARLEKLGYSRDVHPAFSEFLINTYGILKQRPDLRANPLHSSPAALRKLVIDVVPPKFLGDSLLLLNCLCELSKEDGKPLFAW
UniProt Q9BYI3: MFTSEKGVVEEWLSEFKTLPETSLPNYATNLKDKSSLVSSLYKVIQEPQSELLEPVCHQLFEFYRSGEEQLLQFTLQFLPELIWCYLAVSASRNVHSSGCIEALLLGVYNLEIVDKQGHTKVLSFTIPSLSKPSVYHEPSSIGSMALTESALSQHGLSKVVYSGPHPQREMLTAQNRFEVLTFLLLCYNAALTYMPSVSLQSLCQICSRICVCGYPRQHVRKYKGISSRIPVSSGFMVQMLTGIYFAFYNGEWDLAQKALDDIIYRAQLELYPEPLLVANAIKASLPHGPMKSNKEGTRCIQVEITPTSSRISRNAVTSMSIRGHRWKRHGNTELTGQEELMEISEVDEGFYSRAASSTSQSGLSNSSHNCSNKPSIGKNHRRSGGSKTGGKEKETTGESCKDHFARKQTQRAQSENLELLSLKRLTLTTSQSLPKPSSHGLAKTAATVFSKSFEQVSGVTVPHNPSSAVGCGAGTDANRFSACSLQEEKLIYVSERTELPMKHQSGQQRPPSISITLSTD

Compound in this test: Cc1nc(Nc2ncc(C(=O)Nc3c(C)cccc3Cl)s2)cc(N2CCN(CCO)CC2)n1 [dasatinib]
Kind of test: log2 fold change of tryptic peptide abundance, ligand vs vehicle (limited proteolysis) (log2 ratio); higher = more trypsin-susceptible (destabilized). The conditions noted are these: ligand concentration: 5 uM; sample: K562 cleared lysate.
For the target “ITPA (peptide sequence: KIVFVTGNAK, peptide start residue: 9) (UniProt Q9BY32)”, the log2 fold change is -0.333.

Regarding “LRRCC1 (peptide sequence: KVWGHELAQQGSSLAQNR, peptide start residue: 767) (UniProt Q9C099)”, the log2 fold change is -0.622.

As to “UniProt Q9BWN1 (peptide sequence: TQDHNTPALLPKPSLGR, peptide start residue: 314)”, the log2 fold change was -0.278.

Regarding “UniProt Q9BXV9 (peptide sequence: TNFDGPSAK, peptide start residue: 86)”, the log2 fold change is 0.0331.

As to “BTBD1 (peptide sequence: EPLYNWQATK, peptide start residue: 43) (UniProt Q9H0C5)”, the log2 fold change is -0.428.

On to “TNKS1BP1 (peptide sequence: SPAECREEHSK, peptide start residue: 228) (UniProt Q9C0C2)”, for which the log2 fold change was -0.853.

Take “PARP12 (peptide sequence: LCRAHQGSK, peptide start residue: 74) (UniProt Q9H0J9)”: the log2 fold change is 0.19.

Consider “UniProt Q9BWU1 (peptide sequence: DLKPANILVMGEGPER, peptide start residue: 151)”, for which the log2 fold change was -0.382.

Consider “UniProt Q9BYG3 (peptide sequence: VHKELFK, peptide start residue: 126)”, for which the log2 fold change came to 0.336.

Consider “UCK2 (peptide sequence: TLKEITEGK, peptide start residue: 97) (UniProt Q9BZX2)”, for which the log2 fold change was -0.327.

In the case of “INTS2 (peptide sequence: SRSFTKHK, peptide start residue: 563) (UniProt Q9H0H0)”, the log2 fold change is -0.31.

With “NIF3L1 (peptide sequence: FVDSLICNSSR, peptide start residue: 15) (UniProt Q9GZT8)”, the log2 fold change was -0.235.

Take “EIF2A (peptide sequence: DGTLFAWGNGEK, peptide start residue: 47) (UniProt Q9BY44)”: the log2 fold change was -0.627.

As for “NUCKS1 (peptide sequence: TPSPKEEDEEPESPPEK, peptide start residue: 202) (UniProt Q9H1E3)”, the log2 fold change was 0.23.

Take “SIL1 (peptide sequence: VLQTLGVLLTTCRDR, peptide start residue: 397) (UniProt Q9H173)”: the log2 fold change was determined as 0.311.

Take “UniProt Q9BXP5 (peptide sequence: MLDAAVIK, peptide start residue: 249)”: the log2 fold change is -0.194.

Consider “MECR (peptide sequence: LALNCVGGK, peptide start residue: 259) (UniProt Q9BV79)”, for which the log2 fold change is -0.164.

For “CEP295 (peptide sequence: SDSTIPLSHPK, peptide start residue: 1225) (UniProt Q9C0D2)”, the log2 fold change was -1.04.

With “UniProt Q9BZC1 (peptide sequence: LKVQLKR, peptide start residue: 472)”, the log2 fold change is -0.313.

With “SARG (peptide sequence: KLPPNIVLK, peptide start residue: 300) (UniProt Q9BW04)”, the log2 fold change is 0.479.

On to “COMMD5 (peptide sequence: SAVGAATPYLHHPGDSHSGR, peptide start residue: 2) (UniProt Q9GZQ3)”, for which the log2 fold change was -0.107.

“ADI1 (peptide sequence: MFYEEHLHLDDEIR, peptide start residue: 83) (UniProt Q9BV57)”: the log2 fold change is 0.681.

“EDEM3 (peptide sequence: VPCGFAAMK, peptide start residue: 439) (UniProt Q9BZQ6)”: the log2 fold change stood at 0.187.

With “NLN (peptide sequence: VTAFLDDLSQK, peptide start residue: 315) (UniProt Q9BYT8)”, the log2 fold change was 0.26.

Turning to “UniProt Q9BY42 (peptide sequence: AAESVSKPDVSEEAPGPSKVK, peptide start residue: 204)”, the log2 fold change was found to be 0.861.

Turning to “CEP250 (peptide sequence: LQDELELTR, peptide start residue: 2211) (UniProt Q9BV73)”, the log2 fold change is 0.478.

“RUSC1 (peptide sequence: SRFHAFILGLLNTK, peptide start residue: 594) (UniProt Q9BVN2)”: the log2 fold change was -0.0604.

For the target “UniProt Q9C0B7 (peptide sequence: LCGQLLSER, peptide start residue: 304)”, the log2 fold change turned out to be 0.321.

On to “WDR61 (peptide sequence: LWDLENGK, peptide start residue: 90) (UniProt Q9GZS3)”, for which the log2 fold change turned out to be 0.105.

As to “MRPL37 (peptide sequence: ESLLLQVR, peptide start residue: 216) (UniProt Q9BZE1)”, the log2 fold change is 0.58.

As to “UniProt Q9H0A9 (peptide sequence: VVGEIAFQLDRR, peptide start residue: 195)”, the log2 fold change is -0.126.

With “PARD6B (peptide sequence: YGTEKPLGFYIR, peptide start residue: 163) (UniProt Q9BYG5)”, the log2 fold change was -0.0989.

“UniProt Q9BUU2 (peptide sequence: AASDSNPAGPLR, peptide start residue: 130)”: the log2 fold change amounted to 0.16.

Turning to “FAM126A (peptide sequence: LTLTTSQSLPKPSSHGLAK, peptide start residue: 426) (UniProt Q9BYI3)”, the log2 fold change is -0.435.

With “GNL3 (peptide sequence: KLETNPDIKPSNVEPMEK, peptide start residue: 91) (UniProt Q9BVP2)”, the log2 fold change was 0.304.

Take “KATNB1 (peptide sequence: ASDFLPAVK, peptide start residue: 467) (UniProt Q9BVA0)”: the log2 fold change was -0.111.

Regarding “PACSIN1 (peptide sequence: TEQSVTPEQQK, peptide start residue: 179) (UniProt Q9BY11)”, the log2 fold change was found to be 0.00295.

Source of the values: the supplement of paper PMC12819154, “High-throughput peptide-centric local stability assay extends protein–ligand identification to membrane proteins, tissues and bacteria” (Nature Structural & Molecular Biology, 2025).
